Reference: the supplement of paper PMC9015667
The other results are listed elsewhere or left out. Most values come without repeats; read them as rough.

What follows are molecules tested on UACC62P (parental melanoma line) (assay: reduction in cell viability relative to untreated/vehicle; higher = more growth inhibition). Details: 200 nM; 72 h.

SMILES	reduction in cell viability [%]
O=C(Nc1ncc(SCCN2CCCC2)s1)[C@]1(c2ccc(S(=O)(=O)C3CC3)cc2)C[C@H]1C1CCCCC1	1.68
Cc1cc(Nc2cc(NC(=O)c3c(Cl)cccc3Cl)ccn2)nc(N)n1	24
C#Cc1cccc(Nc2ncnc3cc(OCCOC)c(OCCO)cc23)c1	< 0
Nc1nc(OCc2ccccc2)c2nc[nH]c2n1 [O6-Benzylguanine]	< 0

Each molecule was assayed on UACC62R (matched melanoma line resistant to BRAF inhibitors) in the same assay as above. Details: 200 nM; 72 h.

SMILES	reduction in cell viability [%]
CCCCc1ccc(NS(=O)(=O)c2ccc(C)c(C(=O)N3CCN(c4cccc(C)c4C)CC3)c2)cc1	< 0
COc1ccccc1N1CCN(CC(O)COc2cccc3ccccc23)CC1 (stereo not drawn) [Naftopidil]	< 0
CN[C@H]1CN(c2ccc3c(=O)c(C(=O)O)cn(-c4nccs4)c3n2)C[C@@H]1OC [Vosaroxin]	21.2
NC(=O)OCC(COC(N)=O)c1ccccc1 [Felbamate]	< 0
CC/C(=C(\c1ccc(O)cc1)c1ccc(OCCNC)cc1)c1ccccc1 [Endoxifen]	< 0
CC[C@H]1OC(=O)[C@H](C)[C@@H](O[C@H]2C[C@@](C)(OC)[C@@H](O)[C@H](C)O2)[C@H](C)[C@@H](O[C@@H]2O[C@H](C)C[C@H](N(C)C)[C@H]2O)[C@](C)(O)C[C@@H](C)CN(C)[C@H](C)[C@@H](O)[C@]1(C)O [Azithromycin]	< 0
Nc1ccn([C@@H]2CO[C@H](CO)O2)c(=O)n1 [Troxacitabine]	< 0
COc1cc(N2CCC(N3CCN(C)CC3)CC2)ccc1Nc1ncc(Cl)c(Nc2ccccc2S(=O)(=O)C(C)C)n1	18.9
COC(=O)N1CCN(Cc2cccc(NC(=O)Nc3ccc(C)nc3)c2F)CC1 [Omecamtiv mecarbil]	< 0
